Results as given in PMC12732451, “Functional Coupling of Calcium-Sensing Receptor and Polycystin-2 in Renal Epithelial Cells: Physiological Role and Potential Therapeutic Target in Polycystic Kidney Disease” (International Journal of Molecular Sciences, 2025).
Results are given in words; binding and its absence hold for the method and conditions named. In cells and extracts the contact can be indirect. Some binding calls cover weakened binding; strength is not graded here.

Tests used:
[1] = biological target: T1, Polycystin 2 (PC2), human, endogenous in PTEC (human (endogenous in PTEC)) (UniProt Q13563); test: proximity ligation; DuoLink In Situ, confluent monolayer of PTEC wt, fixed (4% paraformaldehyde) and permeabilized (0.1% SDS); mouse anti-CaSR and rabbit anti-PC2; distances < 40 nm
T1 sequence: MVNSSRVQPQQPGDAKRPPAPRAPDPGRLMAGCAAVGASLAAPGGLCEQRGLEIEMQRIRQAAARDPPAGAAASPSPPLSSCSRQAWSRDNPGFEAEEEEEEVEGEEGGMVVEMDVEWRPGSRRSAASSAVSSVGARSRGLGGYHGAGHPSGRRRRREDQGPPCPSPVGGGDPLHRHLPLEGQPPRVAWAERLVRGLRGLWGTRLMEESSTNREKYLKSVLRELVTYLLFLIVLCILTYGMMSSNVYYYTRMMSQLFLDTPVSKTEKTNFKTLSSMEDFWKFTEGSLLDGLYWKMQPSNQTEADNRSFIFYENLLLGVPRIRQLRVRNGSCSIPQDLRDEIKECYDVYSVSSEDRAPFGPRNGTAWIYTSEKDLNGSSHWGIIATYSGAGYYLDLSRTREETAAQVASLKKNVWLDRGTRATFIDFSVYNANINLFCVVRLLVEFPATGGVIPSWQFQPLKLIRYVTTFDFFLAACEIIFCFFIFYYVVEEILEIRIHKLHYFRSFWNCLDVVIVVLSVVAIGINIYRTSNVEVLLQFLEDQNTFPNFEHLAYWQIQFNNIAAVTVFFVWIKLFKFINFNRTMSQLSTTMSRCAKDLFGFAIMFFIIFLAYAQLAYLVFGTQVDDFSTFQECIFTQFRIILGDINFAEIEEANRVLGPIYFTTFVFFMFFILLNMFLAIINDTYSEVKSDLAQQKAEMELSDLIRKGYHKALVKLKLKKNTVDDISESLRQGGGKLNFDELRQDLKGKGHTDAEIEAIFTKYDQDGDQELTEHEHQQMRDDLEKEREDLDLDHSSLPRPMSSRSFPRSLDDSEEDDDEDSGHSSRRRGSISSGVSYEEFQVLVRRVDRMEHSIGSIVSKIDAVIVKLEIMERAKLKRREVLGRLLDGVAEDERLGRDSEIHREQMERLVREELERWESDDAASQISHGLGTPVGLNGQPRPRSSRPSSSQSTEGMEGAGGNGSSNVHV

[2] = biological target: T1, Polycystin 2 (PC2), human, endogenous in PTEC (human (endogenous in PTEC)); test: co-IP; PTEC wt and PC1KD (PKD1 knocked down) lysates (1% Triton X-100, 150 mM NaCl, 25 mM Hepes pH 7.4); anti-PC2 antibodies coupled to protein A-Sepharose, overnight; immunoblot with anti-CaSR and anti-PC2
[3] = biological target: T2, Polycystin 2 (PC2), mouse, endogenous in kidney (mouse (endogenous in kidney)) (UniProt O35245); test: co-IP; mouse kidney homogenates; immunoprecipitation of PC2, blot for CaSR
T2 sequence: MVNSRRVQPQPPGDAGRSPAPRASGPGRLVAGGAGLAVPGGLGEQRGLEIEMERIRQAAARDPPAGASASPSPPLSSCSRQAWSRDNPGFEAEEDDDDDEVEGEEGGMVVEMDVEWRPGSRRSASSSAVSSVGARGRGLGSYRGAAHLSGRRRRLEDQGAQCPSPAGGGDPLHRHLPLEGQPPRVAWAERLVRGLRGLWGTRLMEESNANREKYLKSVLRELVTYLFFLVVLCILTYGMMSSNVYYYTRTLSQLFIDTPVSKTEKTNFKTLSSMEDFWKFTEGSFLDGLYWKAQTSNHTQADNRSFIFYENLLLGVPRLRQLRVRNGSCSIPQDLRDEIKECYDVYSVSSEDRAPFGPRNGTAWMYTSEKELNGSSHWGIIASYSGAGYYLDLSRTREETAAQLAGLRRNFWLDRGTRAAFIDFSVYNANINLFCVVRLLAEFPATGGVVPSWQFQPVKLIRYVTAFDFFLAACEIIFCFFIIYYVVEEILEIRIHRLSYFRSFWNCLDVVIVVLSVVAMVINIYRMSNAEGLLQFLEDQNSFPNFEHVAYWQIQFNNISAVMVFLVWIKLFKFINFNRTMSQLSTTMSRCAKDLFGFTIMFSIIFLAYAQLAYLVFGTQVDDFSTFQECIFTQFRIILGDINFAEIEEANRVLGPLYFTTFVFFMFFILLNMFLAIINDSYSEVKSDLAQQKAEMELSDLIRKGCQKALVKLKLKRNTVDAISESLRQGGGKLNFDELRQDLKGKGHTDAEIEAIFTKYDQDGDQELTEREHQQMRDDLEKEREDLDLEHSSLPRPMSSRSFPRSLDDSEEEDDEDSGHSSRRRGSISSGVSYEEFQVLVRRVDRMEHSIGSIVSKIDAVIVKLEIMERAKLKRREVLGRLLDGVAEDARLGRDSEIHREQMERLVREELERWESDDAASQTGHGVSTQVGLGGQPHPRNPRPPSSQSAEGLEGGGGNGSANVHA

B1: Calcium Sensing Receptor (CaSR), human, endogenous in PTEC (receptor, human (endogenous in PTEC), UniProt P41180 20-1078, looked up)
chain: YGPDQRAQKKGDIILGGLFPIHFGVAAKDQDLKSRPESVECIRYNFRGFRWLQAMIFAIEEINSSPALLPNLTLGYRIFDTCNTVSKALEATLSFVAQNKIDSLNLDEFCNCSEHIPSTIAVVGATGSGVSTAVANLLGLFYIPQVSYASSSRLLSNKNQFKSFLRTIPNDEHQATAMADIIEYFRWNWVGTIAADDDYGRPGIEKFREEAEERDICIDFSELISQYSDEEEIQHVVEVIQNSTAKVIVVFSSGPDLEPLIKEIVRRNITGKIWLASEAWASSSLIAMPQYFHVVGGTIGFALKAGQIPGFREFLKKVHPRKSVHNGFAKEFWEETFNCHLQEGAKGPLPVDTFLRGHEESGDRFSNSSTAFRPLCTGDENISSVETPYIDYTHLRISYNVYLAVYSIAHALQDIYTCLPGRGLFTNGSCADIKKVEAWQVLKHLRHLNFTNNMGEQVTFDECGDLVGNYSIINWHLSPEDGSIVFKEVGYYNVYAKKGERLFINEEKILWSGFSREVPFSNCSRDCLAGTRKGIIEGEPTCCFECVECPDGEYSDETDASACNKCPDDFWSNENHTSCIAKEIEFLSWTEPFGIALTLFAVLGIFLTAFVLGVFIKFRNTPIVKATNRELSYLLLFSLLCCFSSSLFFIGEPQDWTCRLRQPAFGISFVLCISCILVKTNRVLLVFEAKIPTSFHRKWWGLNLQFLLVFLCTFMQIVICVIWLYTAPPSSYRNQELEDEIIFITCHEGSLMALGFLIGYTCLLAAICFFFAFKSRKLPENFNEAKFITFSMLIFFIVWISFIPAYASTYGKFVSAVEVIAILAASFGLLACIFFNKIYIILFKPSRNTIEEVRCSTAAHAFKVAARATLRRSNVSRKRSSSLGGSTGSTPSSSISSKSNSEDPFPQPERQKQQQPLALTQQEQQQQPLTLPQQQRSQQQPRCKQKVIFGSGTVTFSLSFDEPQKNAMAHRNSTHQNSLEAQKSSDTLTRHEPLLPLQCGETDLDLTVQETGLQGPVGGDQRPEVEDPEELSPALVVSSSQSFVISGGGSTVTENVVNS
notes: Calcium sensing receptor (CaSR), human, endogenous in PTEC; no construct, no residues stated; Endogenous protein, detected with a monoclonal anti-CaSR antibody (Sigma C0493); also called extracellular calcium sensing receptor
Question: For B1, which binding [1] is on record?
Answer: binds

Question: And the binding [2]?
Answer: binds

B2: Calcium Sensing Receptor (CaSR), mouse, endogenous in kidney (receptor, UniProt Q9QY96 20-1079)
chain: YGPDQRAQKKGDIILGGLFPIHFGVAAKDQDLKSRPESVECIRYNFRGFRWLQAMIFAIEEINSSPALLPNMTLGYRIFDTCNTVSKALEATLSFVAQNKIDSLNLDEFCNCSEHIPSTIAVVGATGSGVSTAVANLLGLFYIPQVSYASSSRLLSNKNQFKSFLRTIPNDEHQATAMADIIEYFRWNWVGTIAADDDYGRPGIEKFREEAEERDICIDFSELISQYSDEEEIQQVVEVIQNSTAKVIVVFSSGPDLEPLIKEIVRRNITGRIWLASEAWASSSLIAMPEYFHVVGGTIGFGLKAGQIPGFREFLQKVHPRKSVHNGFAKEFWEETFNCHLQDGAKGPLPVDTFVRSHEEGGNRLLNSSTAFRPLCTGDENINSVETPYMDYEHLRISYNVYLAVYSIAHALQDIYTCLPGRGLFTNGSCADIKKVEAWQVLKHLRHLNFTNNMGEQVTFDECGDLVGNYSIINWHLSPEDGSIVFKEVGYYNVYAKKGERLFINEGKILWSGFSREVPFSNCSRDCQAGTRKGIIEGEPTCCFECVECPDGEYSGETDASACDKCPDDFWSNENHTSCIAKEIEFLAWTEPFGIALTLFAVLGIFLTAFVLGVFIKFRNTPIVKATNRELSYLLLFSLLCCFSSSLFFIGEPQDWTCRLRQPAFGISFVLCISCILVKTNRVLLVFEAKIPTSFHRKWWGLNLQFLLVFLCTFMQIVICIIWLYTAPPSSYRNHELEDEIIFITCHEGSLMALGSLIGYTCLLAAICFFFAFKSRKLPENFNEAKFITFSMLIFFIVWISFIPAYASTYGKFVSAVEVIAILAASFGLLACIFFNKVYIILFKPSRNTIEEVRSSTAAHAFKVAARATLRRPNISRKRSSSLGGSTGSIPSSSISSKSNSEDRFPQPERQKQQQPLALTQQEQQQQPLTLQPQQQQQPQQPRCKQKVIFGSGTVTFSLSFDEPQKNAMAHRNSMRQNSLEAQKSNDTLNRHQALLPLQCAEADSEMTIQETGLQGPMVGDHQPEIESPDEMSPALVMSTSRSFVISGGGSSVTENILHS
Question: Which binding [3] does the source give for B2 here?
Answer: binds
